Results published in PMC3608606, “Arabidopsis DEAD-Box RNA Helicase UAP56 Interacts with Both RNA and DNA as well as with mRNA Export Factors”.
Construct, isoform or probe ends are uncertain for at least one entry. For part of these data: A negative result means that nothing was seen under these conditions. For part of these data: At least one verdict was read from the data and is not stated in words by the source. Protein sequences can lack the tags named with them.

Assays:
[1] = molecular target: T1, Df31 (Decondensation Factor 31) (Drosophila) (UniProt O16043); assay: EMSA; conditions: 35 uM protein, EMSA: 32P probe, PAGE, same cited protocol, salt and pH not given, recombinant protein, label: 32P
T1 sequence (looked up, limits assumed): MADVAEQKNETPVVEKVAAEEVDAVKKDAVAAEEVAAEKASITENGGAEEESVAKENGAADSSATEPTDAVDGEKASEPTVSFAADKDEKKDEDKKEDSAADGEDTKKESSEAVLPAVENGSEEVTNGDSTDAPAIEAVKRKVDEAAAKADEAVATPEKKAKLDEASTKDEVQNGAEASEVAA

[2] = molecular target: T2, UAP56 (Arabidopsis thaliana) (UniProt Q56XG6); assay: EMSA; conditions: EMSA: 32P probe, PAGE, same cited protocol, salt and pH not given, recombinant protein, residues 1-427, protein details: 6xHis (pQE9), label: 32P
T2 sequence (looked up): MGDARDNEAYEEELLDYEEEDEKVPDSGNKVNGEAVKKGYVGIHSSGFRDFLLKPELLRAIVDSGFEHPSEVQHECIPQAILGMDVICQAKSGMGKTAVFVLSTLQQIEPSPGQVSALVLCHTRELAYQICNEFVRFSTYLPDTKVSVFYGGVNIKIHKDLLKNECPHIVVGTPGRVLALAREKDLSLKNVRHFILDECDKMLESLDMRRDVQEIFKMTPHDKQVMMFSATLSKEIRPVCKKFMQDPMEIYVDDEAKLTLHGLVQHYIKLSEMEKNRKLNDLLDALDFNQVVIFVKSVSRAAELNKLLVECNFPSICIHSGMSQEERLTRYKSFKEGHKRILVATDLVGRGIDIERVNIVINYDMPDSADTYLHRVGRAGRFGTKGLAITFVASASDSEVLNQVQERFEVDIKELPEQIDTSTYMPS

[3] = molecular target: T1, Df31 (Decondensation Factor 31) (Drosophila); assay: MST; conditions: MST: 50 nM labelled oligonucleotide in EMSA buffer (composition cited, ref 44), 28 C, Hill fit; recombinant protein; label: fluorescent
[4] = molecular target: T2, UAP56 (Arabidopsis thaliana); assay: MST; conditions: MST: 50 nM labelled oligonucleotide in EMSA buffer (composition cited, ref 44), 28 C, Hill fit, recombinant protein, residues 1-427, protein details: 6xHis (pQE9), label: fluorescent

Sequence: AAAACAAAATAGCACCGTAAAGCAC (double strand) [D25ds]
- binding result [1]: no binding

Sequence: AAAACAAAATAGCACCGTAAAGCAC [D25 ssDNA]
- binding result ([1]; single-stranded DNA): no binding
- binding result ([2]; 10-30 uM protein, single-stranded DNA): no binding

Sequence: CCUCCUUUUUUCUUUUUUUUUUUUUUUCU [R29 ssRNA]
- Kd [3]: 35.3 µM
- Kd [4]: 26.6 µM

Sequence: AAAACAAAAUAGCACCGUAAAGCAC / GUGCUUUACGGUGCUAUUUUGUUUU [R25ds]
- binding result [1]: no binding

Sequence: AAAACAAAAUAGCACCGUAAAGCAC [R25 ssRNA]
- binding result [1]: binds
- binding result ([2]; 0.25-5 uM protein, single complex): binds

Sequence: CCTCCTTTTTTCTTTTTTTTTTTTTTTCT [D29 ssDNA]
- binding result ([4]; up to 80 uM protein, single-stranded DNA): no binding
